Results are percentages, as filed. The controls that fix the scale are not given in the record; negative values are as filed. The compounds are a random part of those screened.

Chains of the proteins cited; added tags and fusions are not shown.
UniProt E9BF75, entry or part of it: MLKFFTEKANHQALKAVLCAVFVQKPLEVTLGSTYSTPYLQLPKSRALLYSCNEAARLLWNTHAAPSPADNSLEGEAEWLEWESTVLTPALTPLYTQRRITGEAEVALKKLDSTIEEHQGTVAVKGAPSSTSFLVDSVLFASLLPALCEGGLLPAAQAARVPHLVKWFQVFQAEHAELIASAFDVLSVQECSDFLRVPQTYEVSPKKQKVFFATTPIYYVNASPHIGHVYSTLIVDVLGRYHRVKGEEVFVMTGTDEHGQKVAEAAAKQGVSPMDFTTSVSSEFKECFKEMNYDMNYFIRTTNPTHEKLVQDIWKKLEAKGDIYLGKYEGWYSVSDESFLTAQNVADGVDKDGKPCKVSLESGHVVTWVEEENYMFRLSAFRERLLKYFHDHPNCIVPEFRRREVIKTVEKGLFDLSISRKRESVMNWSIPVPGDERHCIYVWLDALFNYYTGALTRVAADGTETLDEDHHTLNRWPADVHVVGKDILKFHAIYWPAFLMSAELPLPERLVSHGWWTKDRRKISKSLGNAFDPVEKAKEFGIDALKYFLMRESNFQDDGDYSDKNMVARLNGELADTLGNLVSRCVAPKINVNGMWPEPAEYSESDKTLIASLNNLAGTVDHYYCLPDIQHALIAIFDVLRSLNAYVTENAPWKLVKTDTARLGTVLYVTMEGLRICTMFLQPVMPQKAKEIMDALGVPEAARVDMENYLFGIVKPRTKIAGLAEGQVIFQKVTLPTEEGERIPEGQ

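Primary screen of methionyl-tRNA synthetase; the read-out is not stated. Target: Methionyl-tRNA synthetase (putative), Leishmania donovani (UniProt E9BF75). The test concentration is not given. The values are filed as inhibition. Size under these conditions: about 68,000 compounds, about 24 of them at 50% or above in at least one test.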

compound	Inhibition
CN(C(=O)c1ccnn1C)[C@@H]1CCC[C@@H](Oc2ccccc2)[C@@H]1O	14.79
OCCNc1cc(N2CCC(n3cc(C4CCCC4)nn3)CC2)ncn1	16.91
OC[C@H]1CC[C@]2(CC1)CN(Cc1ccccn1)Cc1ccccc1O2	13.36
CC1COC2(CCN(C(=O)c3ncoc3C(C)C)CC2)O1 (stereo unspecified)	9.783
O[C@@H]1C[C@@H](c2nc(-c3ccccc3)no2)N(C2CCOCC2)C1	10.51
COc1ccccc1CN1CCN(CCN2CCOC2=O)CC1	2.41
CC(=O)N1CCC(Oc2ccc(C#N)cc2)CC1	2.094
CC1CCCN(Cc2ccc(CNC(=O)NCc3ccon3)cc2)C1 (stereo unspecified)	3.727
CCN1CCC(NC(=O)CN2CCCC2Cn2cccn2)CC1 (stereo unspecified)	3.01
CC(C)OC(=O)N1CCCCC1CCn1cccn1 (stereo unspecified)	9.589
CCc1nccn1-c1cncc(C2CCCN2)n1 (stereo unspecified)	13.83
COc1ccccc1CN1C[C@@H]2CN(C(C)=O)CCO[C@@H]2C1	17.14
Cn1cc(C2CCCN2C(=O)c2ccc(NC3CC3)nc2)cn1 (stereo unspecified)	12.38
O=C(CCc1ccccn1)NC1CCN(c2cccc(Cl)c2)C1 (stereo unspecified)	6.122
Cc1nonc1CN1CC[C@@](O)(C2CCOCC2)[C@H](C)C1	17.82
CN1CCC(c2cccc(NCc3nccn3C)n2)CC1	3.492
COCCNC(=O)[C@]12COC[C@H]1CN(c1cc(OC)ncn1)C2	2.422
O=C(C1CCC1)N1CC[C@@H]2CN(Cc3cccnc3)S(=O)(=O)[C@@H]2CC1	19.12
CC(Cn1cncn1)NC(=O)N1CC2(CCCC2)c2ccccc21 (stereo unspecified)	13.7
C[C@@H](CO)Nc1nccc(-c2cnc3sc(Cl)cn3c2=O)n1	11.89
CNC(=O)c1cccc(NCC(=O)Nc2cc(C)nn2C)c1C	8.871
CCn1ccc2ccc(CN3CCCC3c3nc(C(C)C)no3)cc21 (stereo unspecified)	10.05
Cc1noc([C@H]2CC[C@@H]3[C@@H](CCN3S(=O)(=O)C3CC3)O2)n1	1.441
Cn1c(-c2ccccc2Cl)nc2cc(C(=O)NCCOCCO)cnc21	7.829
CCN1Cc2ccccc2N(C(=O)C2CCC2)CCC1=O	9.041
Fc1cccc(O[C@@H]2C[C@H]3CN(Cc4ccccn4)CCN3C2)c1	5.245
COc1ccccc1-c1ccc(NCc2cn3c(n2)SCC3)nn1	14.74
CC1CCN(C(=O)[C@@H]2C[C@@H]3CCN(Cc4nccs4)C[C@H]3O2)CC1	11.89
CC(NC(=O)CCc1cccc(OC2CCCC2)c1)c1nncn1C (stereo unspecified)	10.31
CN1CCC(NC(=O)NCCNc2ccccn2)CC1	11.11
CC(C)CNC(=O)c1c(-n2cnnn2)sc2c1CCC2	17.61
Cn1cc(CCNC(=O)N2CCCc3c(F)cccc32)cn1	-0.7246
CN1CCN([C@H]2COC[C@@H]3CN(Cc4cccnc4)C[C@@H]32)CC1	16.48
CCn1ncnc1CN1CCC(CNC(=O)c2ccccc2C#N)C1 (stereo unspecified)	10.7
CNC(=O)COc1ccc(CNCc2cc(F)ccc2F)cc1	18.98
CC(C)(C)c1nnc(CN2CCN(C(=O)CC3CCCCC3)CC2)o1	14.13
CCOC(=O)CCn1cnc2onc(-c3ccc(OC)cc3)c2c1=O	1.166
O=C(Nc1cccnc1)[C@H]1COC[C@H]2CN(C3CCCC3)C[C@H]21	16.19
CCSc1ncc(CN2CCN(c3nc(C)cnc3C)CC2)cn1	7.56
c1cncc(O[C@H]2COCCN(C3CCC3)C2)c1	9.153
CCc1cc(N2CCC(NCc3ccc(C)o3)CC2)ncn1	22.29
O=C(C1CC1)N1CCC2(CCCN2Cc2ccc(F)cc2)CC1	14.01
COc1ccc(Br)cc1CN(C)C(C)c1nc(C)no1 (stereo unspecified)	10.65
c1cncc(OC[C@]23COC[C@H]2CN(C2CCC2)C3)c1	11.54
CCc1nc(CN(C(C)=O)C2CCN(Cc3ccccc3F)C2)no1 (stereo unspecified)	16.62
Cc1ccc2nc(CNc3ccccc3C(=O)NC3CC3)cn2c1	17.03
Cc1noc(C)c1CN1CCC2(CC1)CC(Oc1cccnc1)CO2 (stereo unspecified)	7.609
CCOC(=O)c1sc(NC(=O)CN(C)S(C)(=O)=O)c(C#N)c1C	14.71
CCc1nccn1C1CCCN(C(=O)c2ccc3c(c2)nnn3C)C1 (stereo unspecified)	12.82
Cn1nc(Cn2cccn2)c2c1CN(C1CCOC1)C2 (stereo unspecified)	19.71
O=C(N[C@@H]1CN(c2ncccn2)[C@@H]2CCCO[C@@H]21)c1cscn1	13.64
Cc1nc(CN2C(=O)COC3(CCN(Cc4ccco4)CC3)C2C)cs1 (stereo unspecified)	12.5
Cc1nccn1CCC1CCCCN1Cc1cnc(N(C)C)nc1 (stereo unspecified)	12.85
O=C1COC2(CCN(CC3CCC3)CC2)CN1c1cncnc1	7.781
COc1ccc(-c2noc(CN3CC(n4cc(C)cn4)C3)n2)cc1	19.66
CN1CCCN(C(=O)c2nc3c(n2C)CCN(c2ncccn2)C3)CC1	6.884
CC(C)Cc1noc(C2CCN(C(=O)c3cccs3)CC2)n1	-3.722
CN1CC[C@H](N(Cc2ccccc2)Cc2ccccc2)C[C@H](O)C1	-0.2703
O=C(NCc1cccnc1)[C@@H]1C[C@H]2[C@H](CCN2c2ncc(F)cn2)O1	10.99

Repeated from the top, 6 entries:

With CN(C(=O)c1ccnn1C)[C@@H]1CCC[C@@H](Oc2ccccc2)[C@@H]1O the screen gave 14.79%.
With OCCNc1cc(N2CCC(n3cc(C4CCCC4)nn3)CC2)ncn1 the screen gave 16.91%.
With OC[C@H]1CC[C@]2(CC1)CN(Cc1ccccn1)Cc1ccccc1O2 the screen gave 13.36%.
With CC1COC2(CCN(C(=O)c3ncoc3C(C)C)CC2)O1 (stereo unspecified) the screen gave 9.783%.
With O[C@@H]1C[C@@H](c2nc(-c3ccccc3)no2)N(C2CCOCC2)C1 the screen gave 10.51%.
With COc1ccccc1CN1CCN(CCN2CCOC2=O)CC1 the screen gave 2.41%.

Source: ChEMBL document CHEMBL3988442, “University of Dundee, Small-Polar-MMV Screening Library” (2021).